# Assay results: PubChem BioAssay AID720504 (National Center for Advancing Translational Sciences (NCATS), 2013)
# Amino acid sequences for entries named in this document (tags omitted).
# UniProt P53350, whole entry, looked up: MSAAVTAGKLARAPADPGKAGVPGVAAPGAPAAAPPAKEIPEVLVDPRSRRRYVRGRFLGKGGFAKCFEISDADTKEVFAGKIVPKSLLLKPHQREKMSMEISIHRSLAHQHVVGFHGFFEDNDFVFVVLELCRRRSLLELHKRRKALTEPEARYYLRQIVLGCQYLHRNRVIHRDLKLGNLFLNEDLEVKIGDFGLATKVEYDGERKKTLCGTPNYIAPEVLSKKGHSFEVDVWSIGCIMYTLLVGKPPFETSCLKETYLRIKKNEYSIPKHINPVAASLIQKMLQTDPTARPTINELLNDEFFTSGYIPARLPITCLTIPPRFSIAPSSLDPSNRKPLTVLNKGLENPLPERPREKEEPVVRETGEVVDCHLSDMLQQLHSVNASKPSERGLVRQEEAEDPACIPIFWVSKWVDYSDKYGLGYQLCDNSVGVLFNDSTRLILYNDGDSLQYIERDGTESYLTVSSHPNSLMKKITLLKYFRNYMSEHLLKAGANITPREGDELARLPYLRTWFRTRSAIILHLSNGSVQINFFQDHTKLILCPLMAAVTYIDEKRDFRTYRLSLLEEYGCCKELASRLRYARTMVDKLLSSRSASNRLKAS
# In all, about 360,000 compounds went through this assay and about 10,000 (2.8%) were called active. This list was built around the results that the source calls inconclusive (neither active nor inactive); the mix of calls is not that of the screen. Calls follow the shape of the dose curve; as a rule, active = well fitted inhibition curve with a large enough effect; inconclusive = small, poorly fitted or top-dose-only effect; inactive = flat fitted curve, though single readings scatter. A potency beside an inconclusive call is a rough fit, not a confirmed value.
# Molecular target: Serine/threonine-protein kinase PLK1 (Homo sapiens) (UniProt P53350)
# Assay: qHTS for Inhibitors of PLK1-PDB (polo-like kinase 1 - polo-box domain): Primary Screen; also: nearly all actives have a fitted effect of over 65% in size; as to max response, negative = inhibition: series mostly up to about 57 µM
# Conditions: Plk1 PBD binding of FITC phosphopeptide, fluorescence polarization
# % is scaled to controls: 0 for no effect and ±100 for the full control effect; potency is read from the fitted curve at half-maximal effect.
SMILES,Potency,"max response, negative = inhibition"
NC(=O)Cc1nc2scc(-c3ccccc3)c2c(=O)[nH]1,"inconclusive: 21.2 µM [inhibitor, partial curve]",
Cc1c(C#N)c(=O)c(-[n+]2ccccc2)c([S-])n1-c1ccc(Cl)cc1,"inconclusive: 26.7 µM [inhibitor, partial curve]",
Cc1ccc(/C=N/NC(=O)Cc2ccc(O)cc2)s1,,inactive: -17.9%
CCOc1ccc(-n2nc3ccc(NC(=O)CC)cc3n2)cc1,"inconclusive: 29.9 µM [inhibitor, single point]",
C#CCN(C[C@@H]1[C@@H](OC(=O)NC2CC2)[C@@H](OC(=O)NC2CC2)Cn2c(=O)ccc(=O)n21)S(=O)(=O)c1ccc(C)cc1,"inconclusive: 26.7 µM [inhibitor, partial curve]",
C=C1C(=O)[C@]23C[C@H]1CCC2[C@@]1(C)C(C[C@@H]3O)[C@](C)(C(=O)O)CC[C@@H]1O (stereo partly drawn),"inconclusive: 33.6 µM [inhibitor, partial curve]",
Cc1cc2nc(-c3ccc[nH]c3=O)[nH]c2cc1C,,inactive: -9.24%
O=C1[C@H](Cc2ccccc2)NCCCC[C@H](c2ccco2)N1Cc1ccccc1,,inactive: -17.2%
Cc1cc(N=Nc2ccccc2C(=O)O)c(C)c(C)c1O,,inactive: -29%
O=C(CSc1nc2ccccc2o1)N/N=C/c1ccccc1,"inconclusive: 21.2 µM [inhibitor, single point]",
CC1(C(=O)NCc2ccc(C(F)(F)F)cc2)CCN1Cc1ccccc1OC(F)F (stereo not drawn),,inactive: 5.74%
CCC(=O)N1CCc2cc(S(=O)(=O)CCC(=O)Nc3ccc(CC)cc3)ccc21,,inactive: -3.92%
O=c1c2ccccc2c(-c2n[nH]c(=S)o2)nn1Cc1ccccc1,"inconclusive: 21.2 µM [inhibitor, partial curve]",
COc1ccc(C(C)(NC(C)=O)c2nc(/C=C/c3ccccc3)cs2)cc1 (stereo not drawn),,inactive: 1.85%
CCOC(=O)CSc1nc(C)c2cccc(C)c2n1,"inconclusive: 37.7 µM [inhibitor, single point]",
N#Cc1c(NC(=O)COC(=O)c2ccc(O)cc2O)sc2c1CCC2,"inconclusive: 21.2 µM [inhibitor, partial curve]",
CC(=O)C1(C)OC(N)=C(C#N)C(c2ccccc2)C1(C#N)C#N (stereo not drawn),"inconclusive: 21.2 µM [inhibitor, partial curve]",
Clc1cnc(N/N=C/c2ccco2)c(Cl)c1,,inactive: -4.8%
CCOC(=O)C(=NC1CCCCC1)NNc1cccc(C(F)(F)F)c1,,inactive: -2.57%
C[C@H](CO)N1C[C@H](C)[C@@H](CN(C)C(=O)Nc2ccccc2)Oc2ccc(NS(=O)(=O)c3cn(C)cn3)cc2C1=O,,inconclusive: -32.9% [inhibitor]
CSc1sc(-c2ccnc(=S)[nH]2)c(-c2ccccc2)c1C#N,,inconclusive: -28.9% [inhibitor]
CC(C)(C)c1ccc(OCC(=O)Nc2ccc3c4c(cccc24)C(=O)NC3=O)cc1,"inconclusive: 26.7 µM [inhibitor, single point]",
Nc1ccc(C(=O)Nc2ccco2)cc1,"inconclusive: 21.2 µM [inhibitor, partial curve]",

SMILES,Potency,"max response, negative = inhibition"
CCCNC(=O)c1nc2ncc(Br)cn2n1,"inconclusive: 21.2 µM [inhibitor, partial curve]",
Cc1ccc(C(=O)NC(=S)NNC(=O)COc2ccc([N+](=O)[O-])cc2)cc1,"inconclusive: 26.7 µM [inhibitor, single point]",
Cc1ccc(OCC(=O)N/N=C/c2ccccc2)c([N+](=O)[O-])c1,,inactive: -11.7%
CC(C)(C)S(=O)N1Cc2cc(C(=O)NCCCN3CCOCC3)nc(-c3cccc(-c4cc5ccccc5o4)c3)c2[C@H]1CCO (stereo partly drawn),,inactive: -5.28%
Cc1[nH]n(C(C)(C)C)c(=O)c1Sc1ccc(Cl)cc1,"inconclusive: 29.9 µM [inhibitor, partial curve]",
CCc1ccc(N(C(=O)CNC(=O)c2ccco2)C(C(=O)NC2CCCC2)c2cccnc2)cc1 (stereo not drawn),"inconclusive: 26.7 µM [inhibitor, partial curve]",
Cc1cc(/C=N/NC(=O)c2cccc(N(C)C)c2)c(C)n1-c1cc(C(=O)O)cc(C(=O)O)c1,"inconclusive: 26.7 µM [inhibitor, partial curve]",
CC(C)(C)c1ccc2c(c1)OC(C(=O)N/N=C\c1ccc[nH]1)CO2 (stereo not drawn),,inactive: -4.24%
COc1ccc(/C=C/C(=O)Nc2cccc(S(=O)(=O)NC3=NCCCCC3)c2)cc1,"inconclusive: 16.8 µM [inhibitor, partial curve]",
COCCN(C(=O)CSc1cc(C)c2ccccc2n1)c1c(N)n(CC(C)C)c(=O)[nH]c1=O,"inconclusive: 29.9 µM [inhibitor, partial curve]",
O=C1CCCC2=C1C(c1ccncc1)n1c(nc3ccccc31)N2 (stereo not drawn),active: 26.7 µM,
Cc1cccc(N2CCN(C(=O)/C=C/c3ccco3)CC2)c1C,"inconclusive: 21.2 µM [inhibitor, single point]",
COc1ccc(CCNC(=O)COC(=O)Cn2cnc3ccccc32)cc1OC,,inactive: -3.17%
CCC[C@@H](OS(N)(=O)=O)[C@@H](Cc1ccccc1)C(=O)OCC,"inconclusive: 23.8 µM [inhibitor, single point]",
CCN(C(=O)COC(=O)c1cc2c(s1)CCCC2)c1c(N)n(Cc2ccccc2)c(=O)[nH]c1=O,"inconclusive: 23.8 µM [inhibitor, single point]",
CC1(Cc2ccc3ccccc3n2)C(=O)Nc2ccc(OC(F)(F)F)cc21 (stereo not drawn),,inactive: -5.32%
O=C(c1ccc(S(=O)(=O)Cc2cc(F)ccc2F)c([N+](=O)[O-])c1)N1CCCCC1,"inconclusive: 29.9 µM [inhibitor, partial curve]",
COc1cccc(-c2cc(C(=O)Nc3nc4ccccc4s3)c3ccccc3n2)c1,"inconclusive: 37.7 µM [inhibitor, single point]",
CCOC(=O)c1c(NC(=O)Cn2nnc3ccccc32)sc2c1CCC(C)C2 (stereo not drawn),,inactive: -2.39%
CCOC(=O)c1c(NS(=O)(=O)Cc2ccccc2)sc2c1CCCC2,"inconclusive: 26.7 µM [inhibitor, single point]",
COc1ccc(-c2nnn(CC(=O)N(CCO)C(C(=O)NC3CCCC3)c3ccncc3)n2)cc1 (stereo not drawn),"inconclusive: 21.2 µM [inhibitor, single point]",
O=C(Nc1ccc2oc(=O)c(C(=O)O)cc2c1)Oc1ccccc1,"inconclusive: 37.7 µM [inhibitor, single point]",
COc1cc(OC)c2ccc(=O)oc2c1C(CCN1CCCC1)c1ccc2c(c1)OCO2 (stereo not drawn),,inactive: -2.54%

SMILES,Potency,"max response, negative = inhibition"
Cc1nc2c(C(=O)NCCC(C)C)c[nH]n2c(=O)c1Cl,"inconclusive: 18.9 µM [inhibitor, partial curve]",
NNC(=O)COc1cccc(Oc2ccccc2)c1,,inactive: -14.3%
Cc1nn(-c2cccc(Cl)c2)c2c1C(c1ccncc1)C(C#N)=C(N)O2 (stereo not drawn),"inconclusive: 21.2 µM [inhibitor, single point]",
CC(=O)c1ccc(N2CCN(S(=O)(=O)c3cc4c(cc3C)NC(=O)CO4)CC2)cc1,,inactive: -8.05%
COC(=O)c1ccc(NC(=O)CCS(=O)(=O)c2ccc3c(c2)NC(=O)C(C)S3)cc1 (stereo not drawn),active: 5.97 µM,
COC(=O)c1ccc(COc2ccc(/C=N/NC(N)=S)cc2)o1,"inconclusive: 26.7 µM [inhibitor, single point]",
CCOC(=O)c1c(C)n(C(=O)c2ccco2)c(=O)n1C(=O)c1ccco1,"inconclusive: 26.7 µM [inhibitor, partial curve]",
CC(C)c1ccc(NC(=S)NN(c2ccccc2)c2ccccc2)cc1,"inconclusive: 9.47 µM [inhibitor, partial curve]",
COc1ccc(C2SCCN2C(=S)Nc2ccc(F)cc2)cc1 (stereo not drawn),,inactive: -28.9%
COc1ccccc1N1C(=O)C(Cl)=C(Nc2ccccc2O)C1=O,active: 6.7 µM,
O=C(c1[nH]ncc1-c1cccc(Br)c1)C1CO1 (stereo not drawn),"inconclusive: 10.6 µM [inhibitor, partial curve]",
O=C(NC(=O)c1ccc(Cl)cc1)Nc1cc(N2CCCCC2)ncn1,active: 26.7 µM,
COc1ccc(N=C2NC(=O)CS2)c([N+](=O)[O-])c1,active: 26.7 µM,
CN1C(=O)CS(=O)c2ccc(C(=O)NC3CC3)cc21 (stereo not drawn),"inconclusive: 29.9 µM [inhibitor, single point]",
CC(=O)Nc1ccc(S(=O)(=O)NNc2ccc([N+](=O)[O-])cc2)cc1,"inconclusive: 23.8 µM [inhibitor, single point]",
O=C(O)C1C2CC2CN1C(=O)c1ccc(Cl)cc1 (stereo not drawn),"inconclusive: 23.8 µM [inhibitor, single point]",
O=C(COC(=O)Cc1cccc(C(F)(F)F)c1)Nc1ccc2c(c1)OCCO2,,inconclusive: -32.8% [inhibitor]
O=C(Nc1cc(S(=O)(=O)N2CCOCC2)ccc1N1CCOCC1)c1cn2ccccc2n1,,inconclusive: -35.3% [inhibitor]
CC(=O)CSc1nsc(SCC(C)=O)c1C#N,"inconclusive: 18.9 µM [inhibitor, partial curve]",
O=S(=O)(c1ccccc1)N1N=C(c2ccc(Br)cc2)CC1c1ccco1 (stereo not drawn),active: 2.99 µM,
COc1ccc(-c2nc(N=Nc3ccc(O)cc3)n[nH]2)cc1,,inactive: 7.62%
C/C(=N/NS(=O)(=O)c1cccc([N+](=O)[O-])c1)c1ccc2c(c1)OCO2,,inactive: -25.2%

# Already shown: 17 of the compounds above.
SMILES,Potency,"max response, negative = inhibition"
O=C(c1ccc(S(=O)(=O)Cc2cc(F)ccc2F)c([N+](=O)[O-])c1)N1CCCCC1,"inconclusive: 29.9 µM [inhibitor, partial curve]",
COc1cccc(-c2cc(C(=O)Nc3nc4ccccc4s3)c3ccccc3n2)c1,"inconclusive: 37.7 µM [inhibitor, single point]",
CCOC(=O)c1c(NC(=O)Cn2nnc3ccccc32)sc2c1CCC(C)C2 (stereo not drawn),,inactive: -2.39%
CCOC(=O)c1c(NS(=O)(=O)Cc2ccccc2)sc2c1CCCC2,"inconclusive: 26.7 µM [inhibitor, single point]",
COc1ccc(-c2nnn(CC(=O)N(CCO)C(C(=O)NC3CCCC3)c3ccncc3)n2)cc1 (stereo not drawn),"inconclusive: 21.2 µM [inhibitor, single point]",
O=C(Nc1ccc2oc(=O)c(C(=O)O)cc2c1)Oc1ccccc1,"inconclusive: 37.7 µM [inhibitor, single point]",
COc1cc(OC)c2ccc(=O)oc2c1C(CCN1CCCC1)c1ccc2c(c1)OCO2 (stereo not drawn),,inactive: -2.54%
Cc1nc2c(C(=O)NCCC(C)C)c[nH]n2c(=O)c1Cl,"inconclusive: 18.9 µM [inhibitor, partial curve]",
NNC(=O)COc1cccc(Oc2ccccc2)c1,,inactive: -14.3%
Cc1nn(-c2cccc(Cl)c2)c2c1C(c1ccncc1)C(C#N)=C(N)O2 (stereo not drawn),"inconclusive: 21.2 µM [inhibitor, single point]",
CC(=O)c1ccc(N2CCN(S(=O)(=O)c3cc4c(cc3C)NC(=O)CO4)CC2)cc1,,inactive: -8.05%
COC(=O)c1ccc(NC(=O)CCS(=O)(=O)c2ccc3c(c2)NC(=O)C(C)S3)cc1 (stereo not drawn),active: 5.97 µM,
COC(=O)c1ccc(COc2ccc(/C=N/NC(N)=S)cc2)o1,"inconclusive: 26.7 µM [inhibitor, single point]",
CCOC(=O)c1c(C)n(C(=O)c2ccco2)c(=O)n1C(=O)c1ccco1,"inconclusive: 26.7 µM [inhibitor, partial curve]",
CC(C)c1ccc(NC(=S)NN(c2ccccc2)c2ccccc2)cc1,"inconclusive: 9.47 µM [inhibitor, partial curve]",
COc1ccc(C2SCCN2C(=S)Nc2ccc(F)cc2)cc1 (stereo not drawn),,inactive: -28.9%
COc1ccccc1N1C(=O)C(Cl)=C(Nc2ccccc2O)C1=O,active: 6.7 µM,
